The target of this assay is wild type human APOBEC3G carrying a C-terminal Myc epitope tag (human), Q9HC16. Put plainly: co-IP; HeLa cells co-transfected with 2.5 ug each of untagged and C-terminally Myc-tagged A3G vectors; lysis in 0.5% Triton X-100, 287 mM NaCl, 2.68 mM KCl, 1.47 mM KH2PO4, Na2HPO4, pH 7.2; immunoprecipitation with Myc-specific monoclonal antibody 9E10; blot with A3G-specific Apo-C17. As to conditions: remark: other sources report otherwise.

Results are given in words; binding and its absence hold for the method and conditions named. Binding seen in cells or lysates may run through a third protein. Some results given as binding are weak or reduced against the parent protein; the word gives no strength. Sequences can lack the tags named with a protein.

These results are taken from publication PMC2776001.

B1: untagged human APOBEC3G wild type, Q9HC16 1-384 (protein)
chain: MKPHFRNTVERMYRDTFSYNFYNRPILSRRNTVWLCYEVKTKGPSRPPLDAKIFRGQVYSELKYHPEMRFFHWFSKWRKLHRDQEYEVTWYISWSPCTKCTRDMATFLAEDPKVTLTIFVARLYYFWDPDYQEALRSLCQKRDGPRATMKIMNYDEFQHCWSKFVYSQRELFEPWNNLPKYYILLHIMLGEILRHSMDPPTFTFNFNNEPWVRGRHETYLCYEVERMHNDTWVLLNQRRGFLCNQAPHKHGFLEGRHAELCFLDVIPFWKLDLDQDYRVTCFTSWSPCFSCAQEMAKFISKNKHVSLCIFTARIYDDQGRCQEGLRTLAEAGAKISIMTYSEFKHCWDTFVDHQGCPFQPWDGLDEHSQDLSGRLRAILQNQEN
For B1, the binding entry is given as “binds”.
